{"source": "PubChem BioAssay AID624297", "about": "(National Center for Advancing Translational Sciences (NCATS), 2012)", "note": "Hit rate of the full screen: of about 340,000 compounds, about 6,200 (1.8%) were called active. This list was built around the results that the source calls inconclusive (neither active nor inactive); the mix of calls is not that of the screen. The call rests on the fitted dose curve; in most records, active means well fitted activation curve with a large enough effect; inconclusive means small, poorly fitted or top-dose-only effect; inactive means no such curve, though single readings can be large or run the other way. A potency beside an inconclusive call is a rough fit, not a confirmed value. Potency means the concentration at half of the fitted maximal effect."}
{"assay": "A quantitative high throughput screen for small molecules that induce DNA re-replication in SW480 colon adenocarcinoma cells; further: nearly all actives have a fitted effect of over 55% in size; on re-replication activation: % of control where 0% means no effect.", "conditions": "Hoechst DNA content imaging, 48 h; re-replication activation: at 46.1 µM (top of the series)", "outline": "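Image-based read-out: total Hoechst fluorescence of nuclei (405 nm excitation, 500-530 nm emission), with hits raising the fraction of high-intensity nuclei. SW480 colon cells incubated 48 hr with compounds at 37 C.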"}
{"smiles": "O=C(CSc1ccccc1C(=O)O)NCc1ccc(Cl)cc1", "Potency": "inconclusive: 1.84 µM [activator, partial curve, poor fit]"}
{"smiles": "O=C(Cn1cnc2sc(-c3ccccc3)cc2c1=O)NCc1ccco1", "Potency": "inconclusive: 23.1 µM [activator, single point]"}
{"smiles": "CCOC(=O)N/N=C/c1c(C)nn(-c2ccccc2Cl)c1Cl", "Potency": "inactive"}
{"smiles": "Cc1nc2c(C(=O)NCCc3ccccc3Cl)c[nH]n2c(=O)c1Cl", "Potency": "inconclusive: 6.51 µM [activator, single point]"}
{"smiles": "NC(=O)c1ccc(NC(=O)COC(=O)c2c[nH]c3ccccc23)cc1", "Potency": "inconclusive: 25.9 µM [activator, partial curve, poor fit]"}
{"smiles": "COc1cc(/C=C/C(=O)N2C(=O)c3cccc(N)c3C2=O)cc(OC)c1OC", "Potency": "inconclusive: 7.31 µM [activator, partial curve, poor fit]"}
{"smiles": "CCOC(=O)CSc1nc2cc3c(cc2cc1C)OCO3", "Potency": "inactive"}
{"smiles": "CC[C@@H]1CC=C[C@H]2[C@H]1C(=O)N(Cc1ccccc1)[C@H]2c1ccoc1", "re-replication activation": "inactive: 1.54% [at 9.22 µM]"}
{"smiles": "CCN(CCn1cccn1)C(=O)c1cc(COc2ccccc2SC)on1", "Potency": "inactive"}
{"smiles": "CCOC(=O)C1=C(COC(=O)c2cc(S(=O)(=O)N3CCOCC3)ccc2F)NC(=O)NC1C", "note": "(stereo not drawn)", "Potency": "inactive"}
{"smiles": "COc1ccc(/C=N/NC(=O)c2cccc(Br)c2)cc1Cn1cc(Cl)cn1", "Potency": "inconclusive: 29.1 µM [activator, single point]"}
{"smiles": "COc1ccc(Cl)cc1Nc1nc(-c2cccnc2)cs1", "Potency": "inconclusive: 18.4 µM [activator, single point]"}
{"smiles": "CC1=C(C#N)C(c2ccccc2)C2=C(N1)c1ccccc1C2=O", "note": "(stereo not drawn)", "Potency": "active: 8.2 µM"}
{"smiles": "COc1cc(/C=C(\\C#N)c2nnc(N3CCOCC3)n2-c2ccccc2)ccc1O", "Potency": "active: 6.51 µM"}
{"smiles": "CC(C)C(Cl)=NOC(=O)Nc1ccc(F)cc1", "Potency": "inconclusive: 20.6 µM [activator, single point]"}
{"smiles": "Cc1ccsc1C(=O)Nc1nnc(-c2ccco2)o1", "Potency": "inactive"}
{"smiles": "O=C(Nc1ccc(Cl)cc1)c1ccc2nsnc2c1", "Potency": "inconclusive: 7.31 µM [activator, partial curve, poor fit]"}
{"smiles": "N/C(=N\\OC(=O)c1cccc(Cn2cc(C(F)(F)F)ccc2=O)c1)c1ccccc1", "Potency": "inconclusive: 2.31 µM [activator, full curve]"}
{"smiles": "COc1ccc(S(=O)(=O)Nc2ccc(NC(C)=O)cc2)cc1OC", "Potency": "inconclusive: 25.9 µM [activator, single point]"}
{"smiles": "COc1ccc(C(=O)NC2CCCc3ccccc32)cc1", "note": "(stereo not drawn)", "Potency": "inactive"}
{"smiles": "Cc1ccc(S(=O)(=O)CCC(=O)Nc2nc(-c3ccccn3)cs2)cc1", "Potency": "inconclusive: 29.1 µM [activator, single point]"}
{"smiles": "O=S(=O)([N-]c1nc2ccccc2nc1-n1cc[n+](Cc2ccccc2)c1)c1ccc(Cl)cc1", "Potency": "active: 18.4 µM"}
{"smiles": "CCOc1ccccc1N1CSC2=C(C#N)C(c3c(OC)ccc4ccccc34)CC(=O)N2C1", "note": "(stereo not drawn)", "Potency": "inconclusive: 20.6 µM [activator, single point]"}
{"smiles": "Cc1ccc(/C=C/C(=O)NCCc2cccc(Cl)c2)o1", "Potency": "inconclusive: 0.82 µM [activator, single point]"}
{"smiles": "O=C(Nc1ccccc1NC(=O)c1c(F)c(F)c(F)c(F)c1F)c1c(F)c(F)c(F)c(F)c1F", "Potency": "inconclusive: 20.6 µM [activator, single point]"}
{"smiles": "CN(C)Cc1c(C(=O)N/N=C/c2ccc(OCc3c(F)cccc3Cl)cc2)nnn1-c1nonc1N", "Potency": "inactive"}
{"smiles": "Cc1ccc(NC2=C/C(=N\\S(=O)(=O)c3cccs3)c3ccccc3C2=O)c(C)c1", "Potency": "active: 6.51 µM"}
{"smiles": "O=C(CSc1ccc2nnc(-c3cccnc3)n2n1)Nc1ccc(F)cc1", "Potency": "inconclusive: 29.1 µM [activator, single point]"}
{"smiles": "O=c1c2c3nc4ccccc4nc3n(-c3ccc4c(c3)OCCO4)c2ncn1C1CCCC1", "Potency": "active: 13 µM"}
{"smiles": "CC(C)c1ccc(/C=C2\\SC(=S)N(CCC(=O)NCCCn3ccnc3)C2=O)cc1", "Potency": "inconclusive: 29.1 µM [activator, single point]"}
{"smiles": "O=C(COc1ccc(Cl)cc1Cl)NCC1(N2CCOCC2)CCCCC1", "Potency": "inactive"}
{"smiles": "O=Cc1cn(-c2ccccc2)nc1-c1cc2cc(O)ccc2oc1=O", "Potency": "inactive"}
{"smiles": "O=C(NNC1=C(C(=O)C(F)(F)F)CCC1)c1cccc(O)c1", "Potency": "inconclusive: 29.1 µM [activator, single point]"}
{"smiles": "CCOc1ccc(C(=O)NC(=S)N2CCN(c3ccc(C(F)(F)F)cc3[N+](=O)[O-])CC2)cc1", "Potency": "inconclusive: 29.1 µM [activator, single point]"}
{"smiles": "Cc1ccc(-n2ncc3c2CCCC3NC(=O)CCc2cnccn2)cc1C", "note": "(stereo not drawn)", "Potency": "inactive"}
{"smiles": "CC(=O)COc1cc2c(-c3cc4ccccc4o3)cc(=O)oc2cc1C", "Potency": "inconclusive: 20.6 µM [activator, partial curve, poor fit]"}
{"smiles": "Cn1c(=O)c(C(=O)c2ccccc2)c(O)c2ccccc21", "Potency": "inconclusive: 29.1 µM [activator, single point]"}
{"smiles": "O=C(Nc1ccccc1O)c1cccc(NC(=O)c2ccco2)c1", "Potency": "inactive"}
{"smiles": "N#CC(C(=O)c1ccccc1Cl)=C1SCCCS1", "Potency": "inconclusive: 5.8 µM [activator, partial curve, poor fit]"}
{"smiles": "O=C(Nc1ccc(N2CCOCC2)cc1)C1CC(O)CN1S(=O)(=O)c1ccc(Cl)cc1", "note": "(stereo not drawn)", "Potency": "inconclusive: 0.651 µM [activator, full curve, poor fit]"}
{"smiles": "C=CCNc1nc(N)c(C(=O)c2ccc3c(c2)OCO3)s1", "re-replication activation": "inconclusive: 52.8% [activator]"}
{"smiles": "CCOC(=O)N1CCN(C(=O)c2ccc3c(=O)n(-c4ccccc4F)c(=S)[nH]c3c2)CC1", "Potency": "inactive"}
{"smiles": "COc1ccc(CCNc2nc(-c3cccnc3)nc3ccccc23)cc1OC", "Potency": "inconclusive: 18.4 µM [activator, single point]"}
{"smiles": "CC(C)Oc1ccc(C(=O)NN2C(=O)NC3(CCCCC3)C2=O)cc1", "Potency": "inactive"}
{"smiles": "CCN(CC)c1ccc2cc(C(=O)Nc3ccccn3)c(=O)oc2c1", "Potency": "inconclusive: 1.64 µM [activator, full curve]"}
{"smiles": "O=C(O)c1cccc2sc3cc(Cl)ccc3c(=O)c12", "Potency": "inconclusive: 25.9 µM [activator, partial curve, poor fit]"}
{"smiles": "COc1ccc(CNC(=S)Nc2ccccc2Cl)cc1", "Potency": "inconclusive: 18.4 µM [activator, single point]"}
{"smiles": "O=C(NCCN1CCOCC1)c1c(O)nc2sccn2c1=O", "Potency": "inconclusive: 0.164 µM [activator, full curve, poor fit]"}
{"smiles": "C=CCn1c(SCC(=O)Nc2ccc(F)cc2F)nnc1-c1cnccn1", "Potency": "inactive"}
{"smiles": "COc1ccc(CNC(=O)CSc2nnnn2Cc2ccccc2)cc1", "Potency": "inconclusive: 23.1 µM [activator, single point]"}
{"smiles": "Cc1ccc(NC(=O)CC2SC3=NCCCN3C2=O)c(C)c1", "note": "(stereo not drawn)", "Potency": "inconclusive: 29.1 µM [activator, single point]"}
{"smiles": "CC(C)(C)Cc1nnc(NC(=O)CSc2ccccc2)s1", "re-replication activation": "inconclusive: 33% [activator]"}
{"smiles": "COC1C(CO)OC(n2cnc3c(=S)nc(N)[nH]c32)C1O", "note": "(stereo not drawn)", "Potency": "inactive"}
{"smiles": "Nc1cccnc1S(=O)(=O)c1ccccc1", "Potency": "inactive"}
{"smiles": "Cn1cnc2c1c(=O)[nH]c(=O)n2Cc1ccccc1", "Potency": "inactive"}
{"smiles": "COc1ccc(NC(=O)COC(=O)Cc2ccccc2[N+](=O)[O-])cc1OC", "Potency": "inactive"}
{"smiles": "CC(O)CNc1nc2sc3c(c2c(=O)n1CCc1ccccc1)CCCCC3", "note": "(stereo not drawn)", "Potency": "inconclusive: 16.4 µM [activator, single point]"}
{"smiles": "N=C(N)SCCc1cccc(CCSC(=N)N)c1", "Potency": "inactive"}
{"smiles": "COc1ccc(C(=O)N(C)Cc2ccccc2F)cc1S(=O)(=O)N1CCCC1", "Potency": "inactive"}
{"smiles": "O=C(Cc1cccc(NC(=O)C2CCCN(C(=O)c3ccccc3)C2)c1)Nc1ccc(C(=O)N2CCOCC2)cc1", "note": "(stereo not drawn)", "Potency": "inconclusive: 5.8 µM [activator, partial curve, poor fit]"}
{"smiles": "CCc1sc(C(=O)Nc2nc(-c3ccccn3)cs2)cc1C", "Potency": "inconclusive: 2.31 µM [activator, partial curve, poor fit]"}
{"smiles": "COc1cccc(NC(=S)N/N=C2\\CC3CCC2(C)C3(C)C)c1", "note": "(stereo not drawn)", "Potency": "inconclusive: 29.1 µM [activator, single point]"}
{"smiles": "CCOC(=O)c1cc([N+](=O)[O-])cc([N+](=O)[O-])c1Sc1ncnc2nc[nH]c12", "Potency": "active: 11.6 µM"}
{"smiles": "O=[N+]([O-])c1cccc(-c2cc3ccccc3[nH]2)c1", "re-replication activation": "inconclusive: 60.8% [activator]"}
{"smiles": "CN(CC(O)COc1ccc(OCC(O)CN(C)C2CCCCC2)cc1)C1CCCCC1", "note": "(stereo not drawn)", "Potency": "inconclusive: 29.1 µM [activator, partial curve, poor fit]"}
{"smiles": "CN(C)C1=NCCN1CCCC1CCCCC1", "Potency": "active: 23.1 µM"}
{"smiles": "C#Cc1ccc([C@@H]2C=C(C(=O)N3CCN(Cc4ccccc4)CC3)O[C@H](OCC)[C@H]2CCCO)cc1", "Potency": "inconclusive: 23.1 µM [activator, single point]"}
{"smiles": "Cc1cc(Cl)ccc1NC(=S)N1CCN(Cc2ccccc2)CC1", "Potency": "inactive"}
{"smiles": "NCCC(=O)NCCc1cnc[nH]1", "Potency": "inconclusive: 0.0052 µM [activator, full curve, poor fit]"}
{"smiles": "O=C1[C@H](Cc2ccccc2)NCC=CC[C@H](c2ccc(Cl)cc2)N1Cc1ccccc1", "Potency": "inconclusive: 29.1 µM [activator, single point]"}
{"smiles": "Cc1cccc(NC(=S)NCC2CCCO2)c1", "note": "(stereo not drawn)", "Potency": "inactive"}
{"smiles": "CC(=O)Oc1ccc(N2C(=O)C3C(C2=O)C(C(=O)c2ccc(Cl)cc2)N2CCCC32)cc1", "note": "(stereo not drawn)", "Potency": "active: 4.61 µM"}
{"smiles": "Cc1ccc2nc(N(CCCN(C)C)C(=O)c3ccc(S(=O)(=O)N4CCCCCC4)cc3)sc2c1", "Potency": "inconclusive: 25.9 µM [activator, partial curve, poor fit]"}
